Data taken from ChEMBL document CHEMBL3988442, “University of Dundee, Small-Polar-MMV Screening Library” (2021).

Amino acid sequences for entries named in this document (tags omitted).
UniProt E9BF75, entry or part of it: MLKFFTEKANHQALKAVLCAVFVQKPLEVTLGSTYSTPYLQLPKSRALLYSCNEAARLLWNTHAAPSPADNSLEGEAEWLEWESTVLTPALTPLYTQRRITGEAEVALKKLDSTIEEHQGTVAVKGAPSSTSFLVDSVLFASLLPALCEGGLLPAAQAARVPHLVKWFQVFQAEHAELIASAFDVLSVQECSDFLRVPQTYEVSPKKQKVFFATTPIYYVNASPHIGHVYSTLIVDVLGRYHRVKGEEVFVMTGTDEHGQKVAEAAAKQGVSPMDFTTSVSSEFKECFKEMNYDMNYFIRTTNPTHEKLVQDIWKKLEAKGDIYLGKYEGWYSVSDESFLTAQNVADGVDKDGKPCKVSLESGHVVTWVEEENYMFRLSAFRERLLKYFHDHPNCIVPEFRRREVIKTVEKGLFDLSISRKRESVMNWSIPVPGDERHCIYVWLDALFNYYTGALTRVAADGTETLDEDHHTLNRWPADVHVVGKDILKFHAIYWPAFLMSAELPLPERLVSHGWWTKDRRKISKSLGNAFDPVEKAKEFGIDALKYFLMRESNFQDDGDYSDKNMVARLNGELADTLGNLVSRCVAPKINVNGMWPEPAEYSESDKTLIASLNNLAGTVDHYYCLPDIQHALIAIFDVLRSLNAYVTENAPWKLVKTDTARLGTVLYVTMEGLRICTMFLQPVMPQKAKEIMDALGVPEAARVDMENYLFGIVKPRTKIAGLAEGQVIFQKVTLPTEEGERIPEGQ

Mtb heat-shock: 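Assay on Mycobacterium tuberculosis, filed only as a heat shock assay from Cornell; the read-out is not stated. The concentration is filed as 10 mM, unlikely as a test dose, so the dose is not known. Direction is inferred from retests: higher values go with stronger inhibition. Of about 69,000 compounds tested this way, about 930 (1.4%) reached 50% or more in at least one test.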
LdMetRS: 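Primary screen of methionyl-tRNA synthetase; the read-out is not stated. Target: Methionyl-tRNA synthetase (putative), Leishmania donovani (UniProt E9BF75). The test concentration is not given. Values are per cent inhibition. Of about 68,000 compounds tested this way, about 24 (0.035%) reached 50% or more in at least one test.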
Mtb growth Cornell: 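Whole-cell assay for inhibitors of Mycobacterium tuberculosis growth, labelled Cornell in the record; the read-out is not stated. The concentration is filed as 10 mM, unlikely as a test dose, so the dose is not known. Higher means stronger inhibition (inferred from two other growth screens of the library). About 53,000 compounds were tested under these conditions; 1.7% (about 900) showed 50% or more at least once.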

Results are percentages, as filed.
How 0% and 100% were set is not recorded. Most values in the screen are low, and negative values occur.
This is an unselected part of the compounds tested.
A dash means the value is not listed here; it may have been measured.

Cc1ccccc1-c1noc(-c2ccc(N(C)C3CCOCC3)nc2)n1 gave Mtb heat-shock: 3.754%; LdMetRS: 15.24%. O=C(C1CC1)N1CCC(Nc2nc(O)cc(-c3ccsc3)n2)CC1 read Mtb heat-shock: -10.63%; LdMetRS: 16.04%; Mtb growth Cornell: 45.6%. Result for CCOCCCn1c(NC(=O)c2cc(C)on2)nc2ccccc21 was Mtb heat-shock: 59.74%; LdMetRS: 25.57%. Result for Cc1ccc(-c2noc(CN3CCc4nn(C)c(=O)cc4C3)n2)cc1 was Mtb heat-shock: 8.103%; LdMetRS: 12.43%; Mtb growth Cornell: 25.16%. Result for COCCc1noc(CN2CC(C)(c3ccccc3)CCC2=O)n1 (stereo not shown) was Mtb heat-shock: 10.31%; LdMetRS: 4.416%; Mtb growth Cornell: -7.607%. O=C(C1CCOC1)N1CCC2(CCN(Cc3nccs3)C2)CC1 (stereo not shown) gave Mtb heat-shock: -41.27%; LdMetRS: 9.333%; Mtb growth Cornell: 10.3%.

With CCn1c(Cn2cncn2)nnc1C1CCN(C[C@H]2[C@@H]3CNC[C@@H]32)CC1 the screen gave LdMetRS: 11.78%. For Cc1noc(CCCC(=O)NC(C)c2nnc3n2CCC3)n1 (stereo not shown) the result was Mtb heat-shock: 6.756%; LdMetRS: 6.406%. CC(C)(C)C(=O)N1C[C@H](c2ccsc2)[C@H]2CN(Cc3cccs3)CC[C@H]21 read LdMetRS: 13.64%. CC(C)Oc1ccc(CN2CCC(c3n[nH]c4ncccc34)CC2)cc1 gave Mtb heat-shock: -28.6%; LdMetRS: -2.083%; Mtb growth Cornell: -27.47%. Result for CCCN1CCCN(C(=O)C(CC)N2CCCC2=O)CC1 (stereo not shown) was Mtb heat-shock: -2.753%; LdMetRS: 4.19%; Mtb growth Cornell: -6.174%. With COc1nn(C)cc1C(=O)NCC(=O)NCc1ccccn1 the screen gave Mtb heat-shock: 2.972%; LdMetRS: 2.158%; Mtb growth Cornell: 6.831%.

Result for CC1(C)Cc2ccc(C(=O)NC3CCS(=O)(=O)C3)c(O)c2O1 (stereo not shown) was Mtb heat-shock: 12.62%; LdMetRS: 13.8%; Mtb growth Cornell: -3.009%. For Cc1nc2n(n1)CC(NCc1cc(Cl)c3c(c1)OCCCO3)CC2 (stereo not shown) the result was Mtb heat-shock: 3.335%; LdMetRS: 17.32%; Mtb growth Cornell: 25.45%. Result for Cc1nc2sccn2c1CNc1ccc(C(=O)O)cc1 was Mtb heat-shock: 6.594%; LdMetRS: 9.749%. Cn1ccnc1CN1CCCC(Cc2ccnc3ccncc23)CC1.O=CO (stereo not shown) read Mtb heat-shock: -0.009016%; Mtb growth Cornell: 25.28%. Result for COc1ccc(F)c(-c2cc(NCCO)nc(N)n2)c1 was Mtb heat-shock: -13.44%; LdMetRS: 13.59%; Mtb growth Cornell: -10.46%. CCSc1nnc([C@@H](N)CC(C)C)o1.Cl read Mtb heat-shock: 8.118%; Mtb growth Cornell: 18.19%.

For O=C(c1coc(CN2CCN(c3ccccc3F)CC2)n1)N1CCCC1 the result was Mtb heat-shock: -26.37%; LdMetRS: 8.798%; Mtb growth Cornell: -1.473%. CN(C)S(=O)(=O)N1CCN(C(=O)c2cc(-c3ccccc3)[nH]n2)CC1 read Mtb heat-shock: -19.12%; LdMetRS: 9.922%; Mtb growth Cornell: -22.04%. With CCN(CC)C(=O)[C@@H]1C[C@@H](NC(=O)c2ccn(C(C)(C)C)c2)CN1C the screen gave Mtb heat-shock: 0.9547%; LdMetRS: 4.762%; Mtb growth Cornell: 17.69%. O=C(O)c1cc(-c2ccoc2)cc(S(=O)(=O)NC2CC2)c1 read Mtb heat-shock: -7.01%; LdMetRS: 4.469%; Mtb growth Cornell: 9.834%. For CC(C(=O)NCCN1CCCCC1)n1cncn1 (stereo not shown) the result was Mtb heat-shock: -2.196%; LdMetRS: 10.29%; Mtb growth Cornell: 0.9101%. CCNc1cc2c(nn1)CCN(C(=O)C1Cc3ccccc3O1)C2 (stereo not shown) read Mtb heat-shock: 9.812%; LdMetRS: 9.441%; Mtb growth Cornell: 20%.

CCn1cc(CN2CC3CCCN3C[C@H]2C)c(C)n1 (stereo partly shown) gave Mtb heat-shock: -4.962%; LdMetRS: 10.62%; Mtb growth Cornell: 5.276%. With [H][C@@]12CN(C(=O)NC(C)C)C[C@]1(C(=O)NC)CCCN2c1ncccn1 the screen gave Mtb heat-shock: 22.93%; Mtb growth Cornell: -8.706%. With [H][C@@]12CCN(C(=O)c3ccccn3)C[C@@]1([H])O[C@@H](C)C2 the screen gave Mtb heat-shock: -10.57%; Mtb growth Cornell: -15.46%. For CNC(=O)C1CCN(C(=O)NCc2ccc(-c3ccn[nH]3)cc2)CC1 the result was Mtb heat-shock: -4.591%; LdMetRS: 18.72%; Mtb growth Cornell: -24.99%.

The first 2 entries again:

Compound	Mtb heat-shock	LdMetRS	Mtb growth Cornell
Cc1ccccc1-c1noc(-c2ccc(N(C)C3CCOCC3)nc2)n1	3.754	15.24	-
O=C(C1CC1)N1CCC(Nc2nc(O)cc(-c3ccsc3)n2)CC1	-10.63	16.04	45.6